Test results reported in article PMC7534311, “Sulphonamide inhibition profile of Staphylococcus aureus β-carbonic anhydrase” (Journal of Enzyme Inhibition and Medicinal Chemistry, 2020).

Assays:
[1] = biological target: hCA VA; conditions: read-out: Ki (AAZ) hCA VA; Table 1; cited from earlier work
[2] = biological target: hCA VB; conditions: read-out: Ki (AAZ) hCA VB; Table 1; cited from earlier work
[3] = biological target: hCA XIV; conditions: read-out: Ki (AAZ) hCA XIV; Table 1; cited from earlier work
[4] = biological target: Burkholderia pseudomallei β-CA; conditions: read-out: Ki (AAZ) Burkholderia pseudomallei β-CA; Table 1; cited from earlier work
[5] = biological target: T1, SauBCA (β-carbonic anhydrase from Staphylococcus aureus) (Staphylococcus aureus, UniProt A0AAJ4SIE8); experiment: Stopped-flow CO2 hydration inhibition assay, SauBCA; assay type: biochemical; conditions: recombinant SauBCA, mean from three assays, errors ±5–10%
T1 sequence (A0AAJ4SIE8 1-189): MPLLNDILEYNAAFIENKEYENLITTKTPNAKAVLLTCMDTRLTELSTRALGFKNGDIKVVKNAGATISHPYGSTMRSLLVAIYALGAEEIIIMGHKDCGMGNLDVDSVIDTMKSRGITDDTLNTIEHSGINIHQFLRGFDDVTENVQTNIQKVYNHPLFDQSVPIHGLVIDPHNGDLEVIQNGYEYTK
Experimental: An Applied Photophysics stopped-flow instrument was used for assaying CA-catalysed CO2 hydration activity. […] Six traces of the initial 5 − 10% of the reaction were used to determine the initial velocity. The uncatalysed rates were determined in the same manner and subtracted from the total observed rates. A stock solution of inhibitor (0.1 mM) was prepared in distilled-deionized water, and dilutions of up to 0.01 nM were prepared thereafter with distilled-deionized water. Inhibitor (I) and enzyme (E) solutions were preincubated together for 15 min at RT prior to the assay to allow formation of the E − I complex. Inhibition constants were obtained by using the Cheng-Prusoff equation and nonlinear least squares methods (with PRISM 3) and are presented as the means from at least three different determinations. Kinetic constants were obtained using Lineweaver-Burke plots as reported earlier.

## CC(=O)Nc1nnc(S(N)(=O)=O)s1 [AAZ, acetazolamide]
[1]
  Ki: 63 nM
[2]
  Ki: 54 nM
[3]
  Ki: 41 nM
[4]
  Ki: 745 nM

## CCN[C@H]1C[C@H](C)S(=O)(=O)c2sc(S(N)(=O)=O)cc21 [DZA, dorzolamide]
[5]
  Ki: 909 nM
